Reference: PMC3140482
Results are given in words; binding and its absence hold for the method and conditions named. In cells and extracts the contact can be indirect. Some entries that bind do so weakly or less than the wild type. Tags and fused reporters may be left off the sequences shown. One block for each binder: values may come before it.

By UniProt entry, the sequences of proteins in these tests, tags left out.
UniProt Q07812: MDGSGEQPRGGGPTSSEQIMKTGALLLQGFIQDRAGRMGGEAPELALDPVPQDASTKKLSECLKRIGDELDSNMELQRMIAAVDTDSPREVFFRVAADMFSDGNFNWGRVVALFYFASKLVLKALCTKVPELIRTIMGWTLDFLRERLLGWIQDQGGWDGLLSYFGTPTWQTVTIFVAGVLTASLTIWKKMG

Molecular target: Bax (human (endogenous in SK-N-BE(2)-M17)) (UniProt Q07812)
Assay: co-IP; M17 cell lysates (0.5% NP-40, 150 mM NaCl, 10 mM Tris-HCl pH 7.4) precipitated overnight at 4C with rabbit polyclonal anti-Bax or rabbit IgG and Protein G Sepharose; blotted with anti-14-3-3θ or anti-V5

binding: binds
B1: endogenous 14-3-3θ (protein, UniProt P27348 1-245)
chain: MEKTELIQKAKLAEQAERYDDMATCMKAVTEQGAELSNEERNLLSVAYKNVVGGRRSAWRVISSIEQKTDTSDKKLQLIKDYREKVESELRSICTTVLELLDKYLIANATNPESKVFYLKMKGDYFRYLAEVACGDDRKQTIDNSQGAYQEAFDISKKEMQPTHPIRLGLALNFSVFYYEILNNPELACTLAKTAFDEAIAELDTLNEDSYKDSTLIMQLLRDNLTLWTSDSAGEECDAAEGAEN

binding: binds
B2: full-length 14-3-3θ tagged with V5-His (protein, UniProt P27348 1-245)
chain: B1 chain
